For one compound, Kd results are on record in article PMC6421297, “Novel Mouse Tauopathy Model for Repetitive Mild Traumatic Brain Injury: Evaluation of Long-Term Effects on Cognition and Biomarker Levels After Therapeutic Inhibition of Tau Phosphorylation” (Frontiers in Neurology, 2019).

Chains of the proteins cited; added tags and fusions are not shown. Lines headed by an entry give the natural chain unless they say otherwise; changes in a name come on top.
UniProt Q8BK63: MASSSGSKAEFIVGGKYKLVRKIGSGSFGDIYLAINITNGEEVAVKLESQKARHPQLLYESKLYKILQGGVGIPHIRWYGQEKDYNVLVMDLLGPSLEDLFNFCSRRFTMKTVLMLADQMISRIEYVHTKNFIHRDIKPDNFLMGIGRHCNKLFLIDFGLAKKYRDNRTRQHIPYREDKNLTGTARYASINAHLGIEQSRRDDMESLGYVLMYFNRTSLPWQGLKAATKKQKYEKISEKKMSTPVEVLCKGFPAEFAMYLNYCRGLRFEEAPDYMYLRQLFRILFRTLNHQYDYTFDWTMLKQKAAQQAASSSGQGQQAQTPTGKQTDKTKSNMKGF
UniProt O70172: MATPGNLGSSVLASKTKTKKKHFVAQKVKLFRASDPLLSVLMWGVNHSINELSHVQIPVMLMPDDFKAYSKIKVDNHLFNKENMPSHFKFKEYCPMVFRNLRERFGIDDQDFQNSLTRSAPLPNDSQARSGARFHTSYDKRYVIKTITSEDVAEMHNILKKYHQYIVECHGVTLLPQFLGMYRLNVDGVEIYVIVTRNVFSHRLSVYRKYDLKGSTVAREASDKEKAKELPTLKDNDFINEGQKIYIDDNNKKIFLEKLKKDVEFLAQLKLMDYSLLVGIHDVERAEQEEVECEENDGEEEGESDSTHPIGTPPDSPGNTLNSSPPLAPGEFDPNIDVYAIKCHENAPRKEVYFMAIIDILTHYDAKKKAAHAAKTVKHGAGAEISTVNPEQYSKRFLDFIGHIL
UniProt Q63844, whole entry: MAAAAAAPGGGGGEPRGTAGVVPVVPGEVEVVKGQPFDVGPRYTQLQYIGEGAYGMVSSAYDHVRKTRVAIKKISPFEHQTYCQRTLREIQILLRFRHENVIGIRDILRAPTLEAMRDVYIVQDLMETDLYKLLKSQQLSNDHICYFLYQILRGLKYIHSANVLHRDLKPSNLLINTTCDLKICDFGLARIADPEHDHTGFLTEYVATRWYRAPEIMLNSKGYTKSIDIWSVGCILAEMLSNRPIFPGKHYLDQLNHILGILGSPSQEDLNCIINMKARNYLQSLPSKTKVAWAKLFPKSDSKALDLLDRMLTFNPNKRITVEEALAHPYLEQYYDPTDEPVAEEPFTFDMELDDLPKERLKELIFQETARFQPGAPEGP
UniProt Q9QVP9, whole entry: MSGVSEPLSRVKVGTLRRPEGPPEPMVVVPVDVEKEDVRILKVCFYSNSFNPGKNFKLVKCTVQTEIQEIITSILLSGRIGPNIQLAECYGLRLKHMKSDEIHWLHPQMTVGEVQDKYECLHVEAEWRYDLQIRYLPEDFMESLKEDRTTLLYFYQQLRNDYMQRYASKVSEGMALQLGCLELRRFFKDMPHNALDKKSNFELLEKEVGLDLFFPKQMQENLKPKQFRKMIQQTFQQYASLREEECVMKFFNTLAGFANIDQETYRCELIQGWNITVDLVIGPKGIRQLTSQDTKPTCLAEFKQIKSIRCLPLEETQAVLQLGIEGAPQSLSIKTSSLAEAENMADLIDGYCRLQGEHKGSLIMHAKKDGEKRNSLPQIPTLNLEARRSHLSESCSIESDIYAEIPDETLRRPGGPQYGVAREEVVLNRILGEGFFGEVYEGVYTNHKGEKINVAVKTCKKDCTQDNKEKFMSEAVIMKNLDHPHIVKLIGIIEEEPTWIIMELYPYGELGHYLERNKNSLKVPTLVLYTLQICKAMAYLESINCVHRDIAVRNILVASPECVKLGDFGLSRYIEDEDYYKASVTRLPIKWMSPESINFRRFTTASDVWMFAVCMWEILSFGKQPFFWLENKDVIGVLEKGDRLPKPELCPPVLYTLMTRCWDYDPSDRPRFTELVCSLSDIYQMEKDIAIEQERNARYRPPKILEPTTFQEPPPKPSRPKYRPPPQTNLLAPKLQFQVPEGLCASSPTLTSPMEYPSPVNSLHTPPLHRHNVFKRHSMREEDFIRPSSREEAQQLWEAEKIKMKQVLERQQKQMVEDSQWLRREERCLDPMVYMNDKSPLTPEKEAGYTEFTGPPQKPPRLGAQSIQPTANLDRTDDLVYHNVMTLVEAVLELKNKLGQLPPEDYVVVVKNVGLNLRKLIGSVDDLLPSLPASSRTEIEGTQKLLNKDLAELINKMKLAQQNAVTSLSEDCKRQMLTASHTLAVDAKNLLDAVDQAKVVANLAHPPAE
UniProt P18653, whole entry: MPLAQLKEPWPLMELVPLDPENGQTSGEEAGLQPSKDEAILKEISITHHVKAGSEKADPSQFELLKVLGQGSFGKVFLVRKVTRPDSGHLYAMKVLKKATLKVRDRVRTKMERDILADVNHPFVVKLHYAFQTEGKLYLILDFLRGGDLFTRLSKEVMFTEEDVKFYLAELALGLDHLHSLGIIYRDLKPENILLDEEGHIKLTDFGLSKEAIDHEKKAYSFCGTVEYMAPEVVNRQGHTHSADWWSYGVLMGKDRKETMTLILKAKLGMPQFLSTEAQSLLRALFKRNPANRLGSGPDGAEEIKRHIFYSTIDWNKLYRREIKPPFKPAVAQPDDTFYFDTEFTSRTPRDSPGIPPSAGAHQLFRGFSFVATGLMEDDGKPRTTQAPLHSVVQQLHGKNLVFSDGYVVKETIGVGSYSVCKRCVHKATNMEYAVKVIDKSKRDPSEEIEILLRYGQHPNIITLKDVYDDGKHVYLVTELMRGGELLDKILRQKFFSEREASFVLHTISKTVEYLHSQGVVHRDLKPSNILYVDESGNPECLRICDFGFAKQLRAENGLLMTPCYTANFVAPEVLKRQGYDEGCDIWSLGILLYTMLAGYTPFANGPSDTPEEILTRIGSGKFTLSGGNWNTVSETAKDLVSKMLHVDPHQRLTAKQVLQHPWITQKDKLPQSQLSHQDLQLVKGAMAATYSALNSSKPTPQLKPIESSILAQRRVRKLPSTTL
UniProt Q8BTW9: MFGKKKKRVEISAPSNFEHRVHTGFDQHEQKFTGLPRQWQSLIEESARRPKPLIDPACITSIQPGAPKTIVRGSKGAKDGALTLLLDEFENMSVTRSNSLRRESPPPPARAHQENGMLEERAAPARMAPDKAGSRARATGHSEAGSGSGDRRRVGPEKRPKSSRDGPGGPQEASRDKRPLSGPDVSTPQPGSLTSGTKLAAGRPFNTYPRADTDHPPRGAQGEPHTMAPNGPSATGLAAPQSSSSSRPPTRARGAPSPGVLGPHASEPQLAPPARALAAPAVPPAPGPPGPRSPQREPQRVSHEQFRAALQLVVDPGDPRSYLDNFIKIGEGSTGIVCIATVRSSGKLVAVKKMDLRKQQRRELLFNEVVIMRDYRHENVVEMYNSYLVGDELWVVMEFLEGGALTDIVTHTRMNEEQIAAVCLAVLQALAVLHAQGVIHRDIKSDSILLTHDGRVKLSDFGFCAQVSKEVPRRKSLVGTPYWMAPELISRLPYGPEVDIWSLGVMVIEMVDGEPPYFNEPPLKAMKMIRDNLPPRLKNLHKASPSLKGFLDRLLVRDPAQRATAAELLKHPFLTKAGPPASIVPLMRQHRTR
UniProt Q9WUT3, whole entry: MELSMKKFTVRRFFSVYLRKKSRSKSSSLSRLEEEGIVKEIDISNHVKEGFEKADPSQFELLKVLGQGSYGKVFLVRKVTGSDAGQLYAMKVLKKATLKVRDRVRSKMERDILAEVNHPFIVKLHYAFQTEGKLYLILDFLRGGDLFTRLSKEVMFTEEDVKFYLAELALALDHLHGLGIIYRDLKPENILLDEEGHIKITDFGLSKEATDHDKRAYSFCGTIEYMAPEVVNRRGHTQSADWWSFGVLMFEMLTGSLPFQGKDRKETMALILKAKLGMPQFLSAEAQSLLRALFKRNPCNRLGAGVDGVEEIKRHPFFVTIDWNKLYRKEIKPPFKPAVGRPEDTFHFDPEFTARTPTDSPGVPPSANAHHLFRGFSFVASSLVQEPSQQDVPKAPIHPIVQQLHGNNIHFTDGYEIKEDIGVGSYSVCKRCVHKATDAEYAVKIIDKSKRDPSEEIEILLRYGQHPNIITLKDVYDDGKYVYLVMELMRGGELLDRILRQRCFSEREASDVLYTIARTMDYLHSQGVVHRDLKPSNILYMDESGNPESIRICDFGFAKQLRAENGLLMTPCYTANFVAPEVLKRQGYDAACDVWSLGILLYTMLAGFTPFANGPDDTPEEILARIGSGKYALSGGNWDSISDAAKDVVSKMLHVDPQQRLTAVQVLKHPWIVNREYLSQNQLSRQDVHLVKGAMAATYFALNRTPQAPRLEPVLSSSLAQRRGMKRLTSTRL
UniProt Q9JMK2: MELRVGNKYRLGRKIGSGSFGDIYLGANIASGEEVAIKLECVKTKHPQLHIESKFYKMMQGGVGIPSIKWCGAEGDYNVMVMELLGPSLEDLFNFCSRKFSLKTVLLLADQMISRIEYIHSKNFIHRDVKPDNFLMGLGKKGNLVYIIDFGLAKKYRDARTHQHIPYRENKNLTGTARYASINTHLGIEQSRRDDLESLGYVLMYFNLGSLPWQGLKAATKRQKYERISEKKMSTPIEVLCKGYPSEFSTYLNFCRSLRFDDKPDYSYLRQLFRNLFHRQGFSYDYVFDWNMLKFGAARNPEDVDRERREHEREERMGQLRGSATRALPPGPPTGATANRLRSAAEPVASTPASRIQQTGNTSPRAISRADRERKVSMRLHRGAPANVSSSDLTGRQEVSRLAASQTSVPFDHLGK
UniProt Q91XU3: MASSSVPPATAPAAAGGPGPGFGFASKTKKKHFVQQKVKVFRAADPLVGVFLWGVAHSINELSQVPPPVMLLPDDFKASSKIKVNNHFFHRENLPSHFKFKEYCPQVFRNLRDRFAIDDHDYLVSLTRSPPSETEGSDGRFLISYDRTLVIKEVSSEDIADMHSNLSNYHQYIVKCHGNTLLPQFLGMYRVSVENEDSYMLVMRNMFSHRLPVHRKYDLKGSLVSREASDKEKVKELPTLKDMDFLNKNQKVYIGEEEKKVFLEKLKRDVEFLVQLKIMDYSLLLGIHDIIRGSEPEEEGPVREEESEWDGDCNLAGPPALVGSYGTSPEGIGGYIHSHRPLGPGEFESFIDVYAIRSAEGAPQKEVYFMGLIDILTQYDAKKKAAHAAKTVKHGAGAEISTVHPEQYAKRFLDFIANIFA
UniProt Q9DC28: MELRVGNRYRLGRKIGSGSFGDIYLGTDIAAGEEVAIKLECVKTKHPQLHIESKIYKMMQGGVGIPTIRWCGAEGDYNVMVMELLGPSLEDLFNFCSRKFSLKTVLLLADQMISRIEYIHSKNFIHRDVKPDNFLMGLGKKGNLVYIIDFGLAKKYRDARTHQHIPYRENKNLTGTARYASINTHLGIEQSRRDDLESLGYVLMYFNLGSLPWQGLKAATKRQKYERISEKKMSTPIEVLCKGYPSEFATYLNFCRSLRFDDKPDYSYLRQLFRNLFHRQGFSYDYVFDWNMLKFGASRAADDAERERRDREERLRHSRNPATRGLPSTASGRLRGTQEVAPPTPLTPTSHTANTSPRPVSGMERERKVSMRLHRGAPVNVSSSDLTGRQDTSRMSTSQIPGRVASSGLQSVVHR
UniProt Q9QWV9, whole entry partner: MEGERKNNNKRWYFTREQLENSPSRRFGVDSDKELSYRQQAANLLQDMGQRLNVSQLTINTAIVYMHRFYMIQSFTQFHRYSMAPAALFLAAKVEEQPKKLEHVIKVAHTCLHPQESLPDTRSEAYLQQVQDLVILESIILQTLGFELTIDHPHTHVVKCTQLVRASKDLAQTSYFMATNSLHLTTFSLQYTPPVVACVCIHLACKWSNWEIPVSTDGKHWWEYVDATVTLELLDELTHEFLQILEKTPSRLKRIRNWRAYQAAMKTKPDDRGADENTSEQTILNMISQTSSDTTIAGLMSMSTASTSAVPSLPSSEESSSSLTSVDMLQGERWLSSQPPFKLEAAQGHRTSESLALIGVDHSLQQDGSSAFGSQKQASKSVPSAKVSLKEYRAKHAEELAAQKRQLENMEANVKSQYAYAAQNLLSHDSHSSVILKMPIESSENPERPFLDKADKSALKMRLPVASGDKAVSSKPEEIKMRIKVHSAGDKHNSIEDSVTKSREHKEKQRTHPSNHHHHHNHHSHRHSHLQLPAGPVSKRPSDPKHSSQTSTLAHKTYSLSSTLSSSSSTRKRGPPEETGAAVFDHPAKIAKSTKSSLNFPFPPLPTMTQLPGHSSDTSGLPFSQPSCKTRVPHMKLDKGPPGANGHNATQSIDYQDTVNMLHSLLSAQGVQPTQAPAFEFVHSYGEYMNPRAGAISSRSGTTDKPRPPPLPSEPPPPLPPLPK
UniProt Q80XI4: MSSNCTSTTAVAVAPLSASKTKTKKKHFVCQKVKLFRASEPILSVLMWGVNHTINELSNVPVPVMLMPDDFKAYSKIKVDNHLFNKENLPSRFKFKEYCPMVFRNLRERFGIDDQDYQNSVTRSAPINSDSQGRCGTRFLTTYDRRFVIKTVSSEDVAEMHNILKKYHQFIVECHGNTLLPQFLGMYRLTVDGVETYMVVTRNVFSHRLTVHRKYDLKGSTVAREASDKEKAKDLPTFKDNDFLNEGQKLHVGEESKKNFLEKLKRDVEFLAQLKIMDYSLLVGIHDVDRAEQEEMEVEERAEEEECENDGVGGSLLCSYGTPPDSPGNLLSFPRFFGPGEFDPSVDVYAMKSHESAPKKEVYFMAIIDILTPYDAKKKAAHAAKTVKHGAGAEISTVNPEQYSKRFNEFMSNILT

Assay in all cases: biochemical
Assay [1] addresses Casein kinase I isoform alpha (CSNK1A1) (Mus musculus, UniProt Q8BK63).
In assay [2] the target is 90 kDa ribosomal protein S6 kinase 4 (MSK2) (Mus musculus, UniProt Q9Z2B9).
The target in assay [3] is 1-phosphatidylinositol-5-phosphate 4-kinase 2-alpha (PIP4K2A) (Mus musculus, UniProt O70172).
Assay [4] deals with Extracellular signal-regulated kinase 1 (ERK1) (Mus musculus, UniProt Q63844).
In assay [5] the target is Focal adhesion kinase 1 (FAK) (Mus musculus, UniProt P34152).
Assay [6] concerns the target Proline-rich tyrosine kinase 2 (PYK2) (Mus musculus, UniProt Q9QVP9).
The target of assay [7] is 90 kDa ribosomal protein S6 kinase 1 (p90RSK1) (Mus musculus, UniProt P18653).
Assay [8] deals with p21-activated kinase 4 (PAK4) (Mus musculus, UniProt Q8BTW9).
Assay [9] concerns the target Cyclin-dependent kinase 9 (CDK9) (Mus musculus, UniProt Q99J95).
Assay [10] deals with 90 kDa ribosomal protein S6 kinase 2 (p90RSK2) (Mus musculus, UniProt Q9WUT3).
Assay [11] addresses Casein kinase I isoform epsilon (CSNK1E) (Mus musculus, UniProt Q9JMK2).
Assay [12] has as its target 90 kDa ribosomal protein S6 kinase 3 (p90RSK3) (Mus musculus, UniProt P18654).
Assay [13] concerns the target Phosphatidylinositol-5-phosphate 4-kinase type II gamma (PIP4K2C) (Mus musculus, UniProt Q91XU3).
In assay [14] the target is Casein kinase I isoform delta (CSNK1D) (Mus musculus, UniProt Q9DC28).
The target in assay [15] is p21-activated kinase 5 (PAK5) (Mus musculus, UniProt Q8C015).
The target of assay [16] is Cyclin-T1 (CCNT1) (Mus musculus, UniProt Q9QWV9).
Assay [17] has as its target 1-phosphatidylinositol-5-phosphate 4-kinase 2-beta (PIP4K2B) (Mus musculus, UniProt Q80XI4).

`CC[C@H](CO)Nc1nc(NCc2ccccc2)c2ncn(C(C)C)c2n1` [Roscovitine, (R)-roscovitine]: the Kd in [1] is 7.37 µM; in assay [2] it was 9.6 µM; in [3], 8.32 µM; in [4], 37.5 µM; in [5], 19.8 µM; in assay [6], 27.8 µM. Moreover, the Kd turned out to be 14.7 µM in assay [7]; 0.034 µM in assay [8]; 0.09 µM in assay [9]; 8.55 µM in [10]; 0.602 µM in [11]; 18.9 µM in [12]. The Kd turned out to be 24.9 µM in [13]; 0.501 µM in assay [14]; 1.53 µM in assay [15]; 0.046 µM in assay [16]; 12.4 µM in [17].
